# Assay results as given in the supplement of paper PMC8728848.
# The other results are listed elsewhere or left out.
# B1: CALR truncated at D342 (Homo sapiens) (protein)
# chain: EPAVYFKEQFLDGDGWTSRWIESKHKSDFGKFVLSSGKFYGDEEKDKGLQTSQDARFYALSASFEPFSNKGQTLVVQFTVKHEQNIDCGGGYVKLFPNSLDQTDMHGDSEYNIMFGPDICGPGTKKVHVIFNYKGKNVLINKDIRCKDDEFTHLYTLIVRPDNTYEVKIDNSQVESGSLEDDWDFLPPKKIKDPDASKPEDWDERAKIDDPTDSKPEDWDKPEHIPDPDAKKPEDWDEEMDGEWEPPVIQNPEYKGEWKPRQIDNPDYKGTWIHPEIDNPEYSPDPSIYAYDNFGVLGLDLWQVKSGTIFDNFLITNDEAYAEEFGNETWGVTKAAEKQMKD
# What was measured:
# Test in all cases: glycan array binding signal (z-score within array); higher = stronger binding
# Conditions in all cases: glycan notation: IUPAC condensed, linker removed
# [1] = molecular target: Fuc(a1-2)[GalNAc(a1-3)]Gal(b1-3)GlcNAc(b1-2)Man(a1-3)[Fuc(a1-2)[GalNAc(a1-3)]Gal(b1-3)GlcNAc(b1-2)Man(a1-6)]Man(b1-4)GlcNAc(b1-4)GlcNAc
# Outline: (§1)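 Glycan array binding is given as a within-array Z-score, which can be read as non-binding when negative. The arrays, 3228 of them, came from the Consortium for Functional Glycomics database and were retained only where the protein sequence was available. Z-scores were averaged across arrays of the same protein sequence at different concentrations or buffers and across linkers.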
# [2] = molecular target: Fuc(a1-2)[GalNAc(a1-3)]Gal(b1-3)GlcNAc(b1-2)Man(a1-3)[Fuc(a1-2)[GalNAc(a1-3)]Gal(b1-3)GlcNAc(b1-2)Man(a1-6)]Man(b1-4)GlcNAc(b1-4)[Fuc(a1-6)]GlcNAc
# Outline: as §1
# [3] = molecular target: Fuc(a1-2)[GalNAc(a1-3)]Gal(b1-3)GlcNAc(b1-3)GalNAc
# Outline: as §1
# [4] = molecular target: Fuc(a1-2)[GalNAc(a1-3)]Gal(b1-3)GlcNAc(b1-6)GalNAc
# Outline: as §1
# [5] = molecular target: Fuc(a1-2)[GalNAc(a1-3)]Gal(b1-4)Glc
# Outline: as §1
# [6] = molecular target: Fuc(a1-2)[GalNAc(a1-3)]Gal(b1-4)GlcNAc
# Outline: as §1
# [7] = molecular target: Fuc(a1-2)[GalNAc(a1-3)]Gal(b1-4)GlcNAc(b1-2)Man(a1-3)[Fuc(a1-2)[GalNAc(a1-3)]Gal(b1-4)GlcNAc(b1-2)Man(a1-6)]Man(b1-4)GlcNAc(b1-4)GlcNAc
# Outline: as §1
# [8] = molecular target: Fuc(a1-2)[GalNAc(a1-3)]Gal(b1-4)GlcNAc(b1-2)Man(a1-3)[Fuc(a1-2)[GalNAc(a1-3)]Gal(b1-4)GlcNAc(b1-2)Man(a1-6)]Man(b1-4)GlcNAc(b1-4)[Fuc(a1-6)]GlcNAc
# Outline: as §1
# [9] = molecular target: Fuc(a1-2)[GalNAc(a1-3)]Gal(b1-4)GlcNAc(b1-3)Gal(b1-4)GlcNAc
# Outline: as §1
# [10] = molecular target: Fuc(a1-2)[GalNAc(a1-3)]Gal(b1-4)GlcNAc(b1-3)Gal(b1-4)GlcNAc(b1-3)Gal(b1-4)GlcNAc
# Outline: as §1
# [11] = molecular target: Fuc(a1-2)[GalNAc(a1-3)]Gal(b1-4)GlcNAc(b1-3)GalNAc
# Outline: as §1
# [12] = molecular target: Fuc(a1-2)[GalNAc(a1-3)]Gal(b1-4)[Fuc(a1-3)]GlcNAc
# Outline: as §1
# [13] = molecular target: Fuc(a1-2)[GalNAc(a1-3)]Gal(b1-4)[Fuc(a1-3)]GlcNAc(b1-3)GalNAc
# Outline: as §1
# [14] = molecular target: Fuc(a1-2)[GalNAc(a1-4)]Gal(b1-4)GlcNAc
# Outline: as §1
# [15] = molecular target: Fuc(a1-2)[GalNAc(b1-3)]Gal
# Outline: as §1
# Fuc(a1-3)GlcNAc = molecular target: Fuc(a1-3)GlcNAc
# Outline: as §1
# [16] = molecular target: Fuc(a1-3)[Gal(b1-4)]Glc6S
# Outline: as §1
# [17] = molecular target: Fuc(a1-3)[Gal(b1-4)]GlcNAc
# Outline: as §1
# [18] = molecular target: Fuc(a1-3)[Gal(b1-4)]GlcNAc(b1-2)Man
# Outline: as §1
# [19] = molecular target: Fuc(a1-3)[Gal(b1-4)]GlcNAc(b1-2)Man(a1-3)[Fuc(a1-3)[Gal(b1-4)]GlcNAc(b1-2)Man(a1-6)]Man(b1-4)GlcNAc(b1-4)GlcNAc
# Outline: as §1
# [20] = molecular target: Fuc(a1-3)[Gal(b1-4)]GlcNAc(b1-2)Man(a1-3)[Fuc(a1-3)[Gal(b1-4)]GlcNAc(b1-2)Man(a1-6)]Man(b1-4)GlcNAc(b1-4)[Fuc(a1-6)]GlcNAc
# Outline: as §1
# [21] = molecular target: Fuc(a1-3)[Gal(b1-4)]GlcNAc(b1-3)Gal(b1-3)[Fuc(a1-4)]GlcNAc
# Outline: as §1
# [22] = molecular target: Fuc(a1-3)[Gal(b1-4)]GlcNAc(b1-3)GalNAc
# Outline: as §1
# [23] = molecular target: Fuc(a1-3)[Gal(b1-4)]GlcNAc(b1-4)Gal(b1-4)[Fuc(a1-3)]GlcNAc
# Outline: as §1
# [24] = molecular target: Fuc(a1-3)[Gal(b1-4)]GlcNAc(b1-4)Gal(b1-4)[Fuc(a1-3)]GlcNAc(b1-4)Gal(b1-4)[Fuc(a1-3)]GlcNAc
# Outline: as §1
# [25] = molecular target: Fuc(a1-3)[Gal(b1-4)]GlcNAc(b1-6)GalNAc
# Outline: as §1
# [26] = molecular target: Fuc(a1-3)[Gal(b1-4)]GlcNAc(b1-6)[Gal(b1-3)GlcNAc(b1-3)]Gal(b1-4)Glc
# Outline: as §1
# [27] = molecular target: Fuc(a1-3)[Gal(b1-4)]GlcNAc(b1-6)[Neu5Ac(a2-3)Gal(b1-3)]GalNAc
# Outline: as §1
# [28] = molecular target: Fuc(a1-3)[Gal(b1-4)]GlcNAc6S
# Outline: as §1
# [29] = molecular target: Fuc(a1-3)[Gal3S(b1-4)]GlcNAc
# Outline: as §1
# [30] = molecular target: Fuc(a1-3)[Gal3S(b1-4)]GlcNAc6S
# Outline: as §1
# [31] = molecular target: Fuc(a1-3)[GalNAc(b1-4)]GlcNAc
# Outline: as §1
# [32] = molecular target: Fuc(a1-3)[GalNAc(b1-4)]GlcNAc6S
# Outline: as §1
# [33] = molecular target: Fuc(a1-3)[GalNAc3S(b1-4)]GlcNAc
# Outline: as §1
# Fuc(a1-4)GlcNAc = molecular target: Fuc(a1-4)GlcNAc
# Outline: as §1
# Fuc(b1-3)GlcNAc = molecular target: Fuc(b1-3)GlcNAc
# Outline: as §1
# Gal(a1-2)Gal = molecular target: Gal(a1-2)Gal
# Outline: as §1
# Gal(a1-3)Gal = molecular target: Gal(a1-3)Gal
# Outline: as §1
binder,measurement,setting,value
B1,glycan array binding signal (z-score),[1],-0.878
same,glycan array binding signal (z-score),[2],0.19
same,glycan array binding signal (z-score),[3],-0.928
same,glycan array binding signal (z-score),[4],-0.845
same,glycan array binding signal (z-score),[5],-0.381
same,glycan array binding signal (z-score),[6],0.349
same,glycan array binding signal (z-score),[7],0.156
same,glycan array binding signal (z-score),[8],-1.45
same,glycan array binding signal (z-score),[9],-0.728
same,glycan array binding signal (z-score),[10],-0.104
same,glycan array binding signal (z-score),[11],-1.06
same,glycan array binding signal (z-score),[12],0.29
same,glycan array binding signal (z-score),[13],1.12
same,glycan array binding signal (z-score),[14],-0.449
same,glycan array binding signal (z-score),[15],0.135
same,glycan array binding signal (z-score),Fuc(a1-3)GlcNAc,-0.849
same,glycan array binding signal (z-score),[16],-0.398
same,glycan array binding signal (z-score),[17],0.569
same,glycan array binding signal (z-score),[18],-0.828
same,glycan array binding signal (z-score),[19],0.479
same,glycan array binding signal (z-score),[20],1.53
same,glycan array binding signal (z-score),[21],-0.032
same,glycan array binding signal (z-score),[22],-0.436
same,glycan array binding signal (z-score),[23],0.193
same,glycan array binding signal (z-score),[24],-1.24
same,glycan array binding signal (z-score),[25],-0.529
same,glycan array binding signal (z-score),[26],-0.264
same,glycan array binding signal (z-score),[27],1.34
same,glycan array binding signal (z-score),[28],0.45
same,glycan array binding signal (z-score),[29],-0.195
same,glycan array binding signal (z-score),[30],-0.256
same,glycan array binding signal (z-score),[31],0.435
same,glycan array binding signal (z-score),[32],0.925
same,glycan array binding signal (z-score),[33],-0.567
same,glycan array binding signal (z-score),Fuc(a1-4)GlcNAc,0.043
same,glycan array binding signal (z-score),Fuc(b1-3)GlcNAc,-0.057
same,glycan array binding signal (z-score),Gal(a1-2)Gal,0.551
same,glycan array binding signal (z-score),Gal(a1-3)Gal,0.218

# Another view of part of the listing above.
binder	measurement	setting	value
B1	glycan array binding signal (z-score)	[21]	-0.032
same	glycan array binding signal (z-score)	[22]	-0.436
same	glycan array binding signal (z-score)	[23]	0.193
same	glycan array binding signal (z-score)	[24]	-1.24
same	glycan array binding signal (z-score)	[25]	-0.529
same	glycan array binding signal (z-score)	[26]	-0.264
same	glycan array binding signal (z-score)	[27]	1.34
same	glycan array binding signal (z-score)	[28]	0.45
